Here are results for three molecules from doi:10.1101/2023.03.16.532763 (bioRxiv, 2023).

Sequences of proteins named here, by UniProt entry; tags and fusion partners are left off.
UniProt O75417: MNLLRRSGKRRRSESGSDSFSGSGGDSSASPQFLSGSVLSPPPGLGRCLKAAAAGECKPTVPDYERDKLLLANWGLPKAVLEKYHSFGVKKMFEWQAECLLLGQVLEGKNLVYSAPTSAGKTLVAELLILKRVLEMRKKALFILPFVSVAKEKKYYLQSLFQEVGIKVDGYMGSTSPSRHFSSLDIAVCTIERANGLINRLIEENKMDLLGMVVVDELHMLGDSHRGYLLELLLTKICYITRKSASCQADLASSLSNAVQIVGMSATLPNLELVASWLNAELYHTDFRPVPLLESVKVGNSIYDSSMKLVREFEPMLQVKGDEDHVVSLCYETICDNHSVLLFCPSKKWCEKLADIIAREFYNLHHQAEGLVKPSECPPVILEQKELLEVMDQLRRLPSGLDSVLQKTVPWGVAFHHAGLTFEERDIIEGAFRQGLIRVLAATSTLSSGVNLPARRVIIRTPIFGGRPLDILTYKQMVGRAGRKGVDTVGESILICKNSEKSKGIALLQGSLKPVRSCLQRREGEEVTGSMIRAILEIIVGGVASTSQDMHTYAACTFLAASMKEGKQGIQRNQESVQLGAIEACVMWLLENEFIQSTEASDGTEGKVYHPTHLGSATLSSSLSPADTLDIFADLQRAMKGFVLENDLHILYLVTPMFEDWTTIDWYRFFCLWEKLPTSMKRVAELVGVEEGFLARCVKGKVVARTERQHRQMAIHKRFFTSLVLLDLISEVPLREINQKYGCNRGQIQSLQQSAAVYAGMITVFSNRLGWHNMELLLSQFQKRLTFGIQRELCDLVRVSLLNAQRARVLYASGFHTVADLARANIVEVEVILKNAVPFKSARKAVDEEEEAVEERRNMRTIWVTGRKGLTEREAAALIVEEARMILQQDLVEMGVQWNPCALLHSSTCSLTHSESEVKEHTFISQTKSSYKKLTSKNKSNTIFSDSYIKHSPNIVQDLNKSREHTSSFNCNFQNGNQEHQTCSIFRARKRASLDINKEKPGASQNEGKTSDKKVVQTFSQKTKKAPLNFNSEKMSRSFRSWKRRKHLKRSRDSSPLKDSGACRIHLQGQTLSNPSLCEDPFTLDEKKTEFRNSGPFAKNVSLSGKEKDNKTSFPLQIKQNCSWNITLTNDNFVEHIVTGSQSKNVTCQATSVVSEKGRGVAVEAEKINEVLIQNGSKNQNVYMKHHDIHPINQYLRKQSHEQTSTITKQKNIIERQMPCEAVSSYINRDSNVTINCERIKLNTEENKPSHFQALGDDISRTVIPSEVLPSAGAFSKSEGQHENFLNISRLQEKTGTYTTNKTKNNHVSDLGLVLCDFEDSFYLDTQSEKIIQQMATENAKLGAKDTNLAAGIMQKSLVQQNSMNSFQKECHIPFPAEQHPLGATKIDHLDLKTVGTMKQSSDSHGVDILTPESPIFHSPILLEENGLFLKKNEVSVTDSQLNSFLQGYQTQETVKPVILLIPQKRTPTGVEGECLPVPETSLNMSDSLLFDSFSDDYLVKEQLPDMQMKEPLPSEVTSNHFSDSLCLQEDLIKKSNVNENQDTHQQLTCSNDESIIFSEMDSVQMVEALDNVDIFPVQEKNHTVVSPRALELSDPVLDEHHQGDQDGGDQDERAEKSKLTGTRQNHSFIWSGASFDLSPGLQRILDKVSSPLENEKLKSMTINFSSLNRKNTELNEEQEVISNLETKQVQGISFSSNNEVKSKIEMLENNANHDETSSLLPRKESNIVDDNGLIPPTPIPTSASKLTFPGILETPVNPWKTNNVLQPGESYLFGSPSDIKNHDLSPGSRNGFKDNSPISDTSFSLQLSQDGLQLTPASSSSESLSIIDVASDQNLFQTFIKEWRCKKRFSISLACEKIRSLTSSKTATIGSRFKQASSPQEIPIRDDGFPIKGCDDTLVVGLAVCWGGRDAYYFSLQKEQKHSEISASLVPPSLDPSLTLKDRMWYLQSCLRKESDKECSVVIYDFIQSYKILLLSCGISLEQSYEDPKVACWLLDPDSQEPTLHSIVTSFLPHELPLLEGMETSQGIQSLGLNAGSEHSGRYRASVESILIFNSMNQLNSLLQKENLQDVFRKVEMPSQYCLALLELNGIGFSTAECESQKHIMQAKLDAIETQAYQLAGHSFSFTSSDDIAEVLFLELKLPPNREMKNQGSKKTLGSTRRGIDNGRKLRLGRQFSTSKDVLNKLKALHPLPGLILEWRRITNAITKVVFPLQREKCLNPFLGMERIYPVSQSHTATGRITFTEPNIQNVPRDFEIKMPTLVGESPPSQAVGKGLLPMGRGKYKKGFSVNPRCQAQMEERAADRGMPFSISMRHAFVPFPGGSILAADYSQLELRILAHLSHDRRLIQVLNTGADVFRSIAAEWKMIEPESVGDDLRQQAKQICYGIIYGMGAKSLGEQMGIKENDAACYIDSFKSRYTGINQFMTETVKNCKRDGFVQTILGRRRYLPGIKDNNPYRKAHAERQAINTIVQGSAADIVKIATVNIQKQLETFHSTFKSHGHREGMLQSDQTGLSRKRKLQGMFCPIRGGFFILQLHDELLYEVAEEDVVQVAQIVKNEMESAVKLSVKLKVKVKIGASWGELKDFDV

No constants are given. Whether binding was seen depends on the method and setting. Binding seen in cells or lysates may run through a third protein. Where a sequence is shown, tags or fusion partners need not be part of it.

B1: RAD1-HA (pCMV-RAD1-HA) (protein, UniProt O60671 1-282)
chain: MPLLTQQIQDEDDQYSLVASLDNVRNLSTILKAIHFREHATCFATKNGIKVTVENAKCVQANAFIQAGIFQEFKVQEESVTFRINLTVLLDCLSIFGSSPMPGTLTALRMCYQGYGYPLMLFLEEGGVVTVCKINTQEPEETLDFDFCSTNVINKIILQSEGLREAFSELDMTSEVLQITMSPDKPYFRLSTFGNAGSSHLDYPKDSDLMEAFHCNQTQVNRYKISLLKPSTKALVLSCKVSIRTDNRGFLSLQYMIRNEDGQICFVEYYCCPDEEVPESES
B2: RAD9A-MYC (pCMV-RAD9A-MYC) (protein, UniProt Q99638 1-391)
chain: MKCLVTGGNVKVLGKAVHSLSRIGDELYLEPLEDGLSLRTVNSSRSAYACFLFAPLFFQQYQAATPGQDLLRCKILMKSFLSVFRSLAMLEKTVEKCCISLNGRSSRLVVQLHCKFGVRKTHNLSFQDCESLQAVFDPASCPHMLRAPARVLGEAVLPFSPALAEVTLGIGRGRRVILRSYHEEEADSTAKAMVTEMCLGEEDFQQLQAQEGVAITFCLKEFRGLLSFAESANLNLSIHFDAPGRPAIFTIKDSLLDGHFVLATLSDTDSHSQDLGSPERHQPVPQLQAHSTPHPDDFANDDIDSYMIAMETTIGNEGSRVLPSISLSPGPQPPKSPGPHSEEEDEAEPSTVPGTPPPKKFRSLFFGSILAPVRSPQGPSPVLAEDSEGEG
B3: HUS1-3XFLAG (pCMV14-HUS1-3XFLAG) (protein, UniProt O60921 1-280)
chain: MKFRAKIVDGACLNHFTRISNMIAKLAKTCTLRISPDKLNFILCDKLANGGVSMWCELEQENFFNEFQMEGVSAENNEIYLELTSENLSRALKTAQNARALKIKLTNKHFPCLTVSVELLSMSSSSRIVTHDIPIKVIPRKLWKDLQEPVVPDPDVSIYLPVLKTMKSVVEKMKNISNHLVIEANLDGELNLKIETELVCVTTHFKDLGNPPLASESTHEDRNVEHMAEVHIDIRKLLQFLAGQQVNPTKALCNIVNNKMVHFDLLHEDVSLQYFIPALS

The assay addresses FLAG-Polθ (full-length human POLQ in pLPC-Flag vector) (human) (UniProt O75417). Put plainly: co-IP.
As for B1, the binding entry was “no binding”. Turning to B2, the binding entry is listed as “no binding”. Take B3: the binding entry is given as “no binding”.
